No constants are given. Whether binding was seen depends on the method and setting. In cells and extracts the contact can be indirect. Here binding means that the protein was enriched with, or labelled near, the bait; the list need not be complete. For part of these data: A no says only that the protein was not detected with the bait. Where a sequence is shown, tags or fusion partners need not be part of it.
Columns and labels:
[1] = target: T1, FLAG-GST-propionyl-CoA carboxylase subunit alpha (PCCA) (human) (UniProt P05165); test: proximity labelling; CF-PPiD on the 20 K human protein beads array: 19,712 FG-tagged human proteins as dual spots on 27 1536-well plates; AirID-IκBα translational mixture with biotin and ATP; signals normalised to RelA on each plate; only the target purified
T1 sequence: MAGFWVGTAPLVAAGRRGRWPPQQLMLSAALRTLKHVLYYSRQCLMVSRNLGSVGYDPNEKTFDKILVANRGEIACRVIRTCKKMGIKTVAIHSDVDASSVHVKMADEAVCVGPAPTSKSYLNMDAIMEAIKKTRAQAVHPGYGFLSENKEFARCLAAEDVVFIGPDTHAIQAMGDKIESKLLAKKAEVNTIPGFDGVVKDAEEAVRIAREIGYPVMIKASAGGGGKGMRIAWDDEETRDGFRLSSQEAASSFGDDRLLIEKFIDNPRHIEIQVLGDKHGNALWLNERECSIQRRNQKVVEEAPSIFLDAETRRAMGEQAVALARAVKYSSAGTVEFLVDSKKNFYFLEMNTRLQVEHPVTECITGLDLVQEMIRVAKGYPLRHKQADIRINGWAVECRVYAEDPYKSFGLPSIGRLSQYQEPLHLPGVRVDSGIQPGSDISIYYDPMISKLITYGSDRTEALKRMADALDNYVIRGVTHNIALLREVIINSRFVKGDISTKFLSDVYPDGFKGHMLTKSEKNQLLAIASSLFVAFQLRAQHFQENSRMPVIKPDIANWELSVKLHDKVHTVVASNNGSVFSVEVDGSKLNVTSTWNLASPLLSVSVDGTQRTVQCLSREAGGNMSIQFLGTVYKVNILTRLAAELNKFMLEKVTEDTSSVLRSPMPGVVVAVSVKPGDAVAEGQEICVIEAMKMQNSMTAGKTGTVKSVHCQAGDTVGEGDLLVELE

Chains of the proteins cited; added tags and fusions are not shown.
UniProt P25963: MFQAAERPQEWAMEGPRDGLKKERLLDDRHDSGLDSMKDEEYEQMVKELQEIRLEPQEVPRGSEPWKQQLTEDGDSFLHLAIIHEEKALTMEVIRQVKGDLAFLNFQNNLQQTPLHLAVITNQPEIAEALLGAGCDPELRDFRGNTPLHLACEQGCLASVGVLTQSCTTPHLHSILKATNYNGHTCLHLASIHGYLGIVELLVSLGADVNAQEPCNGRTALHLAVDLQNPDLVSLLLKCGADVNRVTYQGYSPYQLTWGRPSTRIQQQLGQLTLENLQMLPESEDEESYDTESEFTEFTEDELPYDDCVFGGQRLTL

FLAG-GST-EFHC2 (human) = target: T2, FLAG-GST-EFHC2 (human) (UniProt Q5JST6); test: proximity labelling; CF-PPiD on the diversity protein array: 118 FG-tagged human proteins on glutathione magnetic beads, 1536-well plate, 1x and 3x dual spots; translational mixture of AirID, AirID-TP53 or AirID-IκBα with biotin and ATP; HRP-conjugated anti-biotin antibody; only the target purified
T2 sequence: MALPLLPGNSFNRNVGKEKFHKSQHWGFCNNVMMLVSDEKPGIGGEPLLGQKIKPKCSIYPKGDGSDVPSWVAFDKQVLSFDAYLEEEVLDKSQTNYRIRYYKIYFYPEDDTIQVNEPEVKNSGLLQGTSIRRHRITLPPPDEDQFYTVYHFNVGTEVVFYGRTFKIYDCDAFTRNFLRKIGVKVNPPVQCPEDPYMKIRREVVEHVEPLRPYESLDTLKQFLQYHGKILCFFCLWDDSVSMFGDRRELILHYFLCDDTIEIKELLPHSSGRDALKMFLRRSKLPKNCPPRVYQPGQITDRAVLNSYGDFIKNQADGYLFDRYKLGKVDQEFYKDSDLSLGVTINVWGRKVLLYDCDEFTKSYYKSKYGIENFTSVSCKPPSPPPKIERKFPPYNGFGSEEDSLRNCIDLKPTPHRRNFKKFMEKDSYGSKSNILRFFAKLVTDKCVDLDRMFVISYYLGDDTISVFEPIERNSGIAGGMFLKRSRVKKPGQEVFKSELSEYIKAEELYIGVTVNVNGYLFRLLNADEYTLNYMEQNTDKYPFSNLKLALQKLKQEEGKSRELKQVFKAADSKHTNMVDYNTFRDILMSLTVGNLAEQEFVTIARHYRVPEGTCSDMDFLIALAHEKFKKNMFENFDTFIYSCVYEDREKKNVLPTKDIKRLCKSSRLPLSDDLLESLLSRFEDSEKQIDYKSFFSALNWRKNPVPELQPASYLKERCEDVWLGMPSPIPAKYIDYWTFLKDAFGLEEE

FLAG-GST-LATS2 (human) = target: T3, FLAG-GST-LATS2 (human) (UniProt Q9NRM7); test: as above
T3 sequence: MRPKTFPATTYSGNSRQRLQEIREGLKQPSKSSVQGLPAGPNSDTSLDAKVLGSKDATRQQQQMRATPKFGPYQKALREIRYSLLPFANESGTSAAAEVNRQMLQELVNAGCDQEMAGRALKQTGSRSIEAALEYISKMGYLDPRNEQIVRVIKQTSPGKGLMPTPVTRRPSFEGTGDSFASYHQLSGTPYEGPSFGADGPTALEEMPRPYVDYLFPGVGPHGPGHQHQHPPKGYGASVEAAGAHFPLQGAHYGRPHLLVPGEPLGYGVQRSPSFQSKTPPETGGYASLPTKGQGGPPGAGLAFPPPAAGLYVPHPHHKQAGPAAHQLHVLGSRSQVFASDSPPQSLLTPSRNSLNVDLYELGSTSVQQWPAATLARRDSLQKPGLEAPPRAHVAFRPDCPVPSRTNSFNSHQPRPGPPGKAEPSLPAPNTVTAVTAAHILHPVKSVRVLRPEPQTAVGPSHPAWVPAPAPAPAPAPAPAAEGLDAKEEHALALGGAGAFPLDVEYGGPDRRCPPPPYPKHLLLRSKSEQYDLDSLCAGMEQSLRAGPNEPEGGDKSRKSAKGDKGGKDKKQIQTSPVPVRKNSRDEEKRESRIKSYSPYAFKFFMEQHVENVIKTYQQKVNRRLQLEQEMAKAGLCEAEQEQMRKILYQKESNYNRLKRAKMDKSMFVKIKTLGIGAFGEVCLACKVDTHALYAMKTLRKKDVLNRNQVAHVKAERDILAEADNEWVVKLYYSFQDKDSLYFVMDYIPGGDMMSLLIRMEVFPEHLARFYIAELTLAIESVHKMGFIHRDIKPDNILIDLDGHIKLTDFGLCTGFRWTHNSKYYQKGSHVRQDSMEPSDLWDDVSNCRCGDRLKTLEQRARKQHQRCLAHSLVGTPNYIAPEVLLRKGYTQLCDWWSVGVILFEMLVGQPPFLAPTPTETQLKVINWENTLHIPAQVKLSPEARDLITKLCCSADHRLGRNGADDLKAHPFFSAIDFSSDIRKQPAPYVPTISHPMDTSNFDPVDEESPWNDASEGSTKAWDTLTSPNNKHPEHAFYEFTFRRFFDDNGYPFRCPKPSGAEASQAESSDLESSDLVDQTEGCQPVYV

AirID N-terminally fused to IκBα (from UniProt P25963 1-317)
binding [1]: no binding | binding (FLAG-GST-EFHC2 (human)): binds | binding (FLAG-GST-LATS2 (human)): no binding
